Reference: paper PMC9130917
These are yes or no findings as the source states them, for the method shown. In cells and extracts the contact can be indirect. Some entries that bind do so weakly or less than the wild type. Blank lines part the entries; values can stand above or below the binder they belong to.

Chains of the proteins cited; added tags and fusions are not shown.
UniProt Q9P2J5: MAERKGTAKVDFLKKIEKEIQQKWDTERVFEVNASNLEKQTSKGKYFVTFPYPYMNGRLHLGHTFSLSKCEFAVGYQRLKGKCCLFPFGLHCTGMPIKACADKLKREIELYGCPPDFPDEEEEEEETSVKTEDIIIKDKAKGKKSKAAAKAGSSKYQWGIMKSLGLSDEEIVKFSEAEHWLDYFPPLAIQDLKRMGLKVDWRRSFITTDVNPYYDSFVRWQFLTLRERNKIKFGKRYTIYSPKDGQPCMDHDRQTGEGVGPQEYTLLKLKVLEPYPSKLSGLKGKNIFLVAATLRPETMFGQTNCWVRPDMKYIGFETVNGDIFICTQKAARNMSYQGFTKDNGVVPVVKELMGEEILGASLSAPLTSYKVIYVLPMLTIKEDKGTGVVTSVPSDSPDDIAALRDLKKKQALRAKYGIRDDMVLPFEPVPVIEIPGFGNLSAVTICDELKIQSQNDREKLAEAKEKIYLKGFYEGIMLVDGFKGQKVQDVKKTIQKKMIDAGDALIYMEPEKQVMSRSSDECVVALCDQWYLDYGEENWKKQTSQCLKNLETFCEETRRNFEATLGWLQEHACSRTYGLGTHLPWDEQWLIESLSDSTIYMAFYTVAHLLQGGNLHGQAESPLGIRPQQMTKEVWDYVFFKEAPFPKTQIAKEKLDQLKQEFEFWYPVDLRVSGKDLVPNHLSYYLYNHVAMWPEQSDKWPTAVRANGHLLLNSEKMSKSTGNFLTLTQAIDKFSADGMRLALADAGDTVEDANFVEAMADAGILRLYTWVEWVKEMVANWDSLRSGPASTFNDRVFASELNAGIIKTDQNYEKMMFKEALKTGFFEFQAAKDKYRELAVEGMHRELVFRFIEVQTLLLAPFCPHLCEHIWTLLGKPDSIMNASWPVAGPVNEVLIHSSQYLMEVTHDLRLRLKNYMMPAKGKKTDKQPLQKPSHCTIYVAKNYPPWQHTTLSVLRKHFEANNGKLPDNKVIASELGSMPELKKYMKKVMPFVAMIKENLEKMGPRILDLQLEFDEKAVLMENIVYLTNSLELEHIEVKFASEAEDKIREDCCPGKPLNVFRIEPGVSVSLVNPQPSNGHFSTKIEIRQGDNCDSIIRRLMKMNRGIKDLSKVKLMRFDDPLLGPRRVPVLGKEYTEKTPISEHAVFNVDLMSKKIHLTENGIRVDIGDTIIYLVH
UniProt Q8BMJ2: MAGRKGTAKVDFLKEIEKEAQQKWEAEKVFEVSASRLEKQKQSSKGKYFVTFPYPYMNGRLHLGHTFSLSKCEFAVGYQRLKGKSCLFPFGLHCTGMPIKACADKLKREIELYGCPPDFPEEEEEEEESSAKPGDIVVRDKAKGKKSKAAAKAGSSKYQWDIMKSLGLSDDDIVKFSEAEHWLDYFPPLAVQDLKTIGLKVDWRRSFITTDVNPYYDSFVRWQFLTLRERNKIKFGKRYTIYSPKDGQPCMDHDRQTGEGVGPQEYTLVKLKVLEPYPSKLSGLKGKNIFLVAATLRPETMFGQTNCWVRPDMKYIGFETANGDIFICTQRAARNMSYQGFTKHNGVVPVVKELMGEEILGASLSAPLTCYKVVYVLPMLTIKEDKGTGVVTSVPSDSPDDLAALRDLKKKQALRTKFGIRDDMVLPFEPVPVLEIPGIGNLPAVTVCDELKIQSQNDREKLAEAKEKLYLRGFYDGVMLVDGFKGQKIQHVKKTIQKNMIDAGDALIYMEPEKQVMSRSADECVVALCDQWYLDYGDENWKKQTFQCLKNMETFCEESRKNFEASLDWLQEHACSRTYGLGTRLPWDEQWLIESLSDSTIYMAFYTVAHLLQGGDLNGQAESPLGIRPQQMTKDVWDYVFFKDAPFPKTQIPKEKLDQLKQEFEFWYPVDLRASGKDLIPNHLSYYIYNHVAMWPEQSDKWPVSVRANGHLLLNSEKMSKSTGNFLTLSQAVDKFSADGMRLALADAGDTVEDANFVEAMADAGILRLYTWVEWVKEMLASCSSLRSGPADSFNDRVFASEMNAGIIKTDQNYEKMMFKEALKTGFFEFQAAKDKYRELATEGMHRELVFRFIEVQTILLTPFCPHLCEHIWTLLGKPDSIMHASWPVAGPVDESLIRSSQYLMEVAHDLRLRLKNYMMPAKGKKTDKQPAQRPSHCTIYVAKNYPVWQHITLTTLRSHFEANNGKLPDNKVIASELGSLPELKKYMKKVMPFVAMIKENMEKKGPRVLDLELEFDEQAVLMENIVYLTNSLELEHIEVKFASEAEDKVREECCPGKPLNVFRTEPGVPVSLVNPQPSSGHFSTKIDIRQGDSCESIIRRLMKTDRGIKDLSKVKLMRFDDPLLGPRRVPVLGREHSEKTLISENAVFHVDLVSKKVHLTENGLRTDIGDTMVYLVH

Key:
[1] = biological target: leucyl-tRNA synthetase (LARS), exogenous, for coimmunoprecipitation (UniProt Q9P2J5); experiment: co-IP; coimmunoprecipitation of exogenous TBX5 and LARS in cultured cells (HL-1 as the text reads)
[2] = biological target: leucyl-tRNA synthetase (LARS), endogenous in HL-1 cells (mouse (endogenous in HL-1)) (UniProt Q8BMJ2); experiment: co-IP; coimmunoprecipitation of endogenous TBX5 and LARS in the mouse cardiac muscle cell line HL-1

binding [1]: binds
B1: T-box transcription factor 5 (TBX5), exogenous, for coimmunoprecipitation with LARS (protein, UniProt Q99593 1-518)
chain: MADADEGFGLAHTPLEPDAKDLPCDSKPESALGAPSKSPSSPQAAFTQQGMEGIKVFLHERELWLKFHEVGTEMIITKAGRRMFPSYKVKVTGLNPKTKYILLMDIVPADDHRYKFADNKWSVTGKAEPAMPGRLYVHPDSPATGAHWMRQLVSFQKLKLTNNHLDPFGHIILNSMHKYQPRLHIVKADENNGFGSKNTAFCTHVFPETAFIAVTSYQNHKITQLKIENNPFAKGFRGSDDMELHRMSRMQSKEYPVVPRSTVRQKVASNHSPFSSESRALSTSSNLGSQYQCENGVSGPSQDLLPPPNPYPLPQEHSQIYHCTKRKEEECSTTDHPYKKPYMETSPSEEDSFYRSSYPQQQGLGASYRTESAQRQACMYASSAPPSEPVPSLEDISCNTWPSMPSYSSCTVTTVQPMDRLPYQHFSAHFTSGPLVPRLAGMANHGSPQLGEGMFQHQTSVAHQPVVRQCGPQTGLQSPGTLQPPEFLYSHGVPRTLSPHQYHSVHGVGMVPEWSDNS

binding [2]: binds
B2: T-box transcription factor 5 (TBX5), endogenous in HL-1 cells (protein, UniProt P70326 1-518)
chain: MADTDEGFGLARTPLEPDSKDRSCDSKPESALGAPSKSPSSPQAAFTQQGMEGIKVFLHERELWLKFHEVGTEMIITKAGRRMFPSYKVKVTGLNPKTKYILLMDIVPADDHRYKFADNKWSVTGKAEPAMPGRLYVHPDSPATGAHWMRQLVSFQKLKLTNNHLDPFGHIILNSMHKYQPRLHIVKADENNGFGSKNTAFCTHVFPETAFIAVTSYQNHKITQLKIENNPFAKGFRGSDDLELHRMSRMQSKEYPVVPRSTVRHKVTSNHSPFSSETRALSTSSNLGSQYQCENGVSGPSQDLLPPPNPYPLAQEHSQIYHCTKRKDEECSSTEHPYKKPYMETSPSEEDTFYRSGYPQQQGLSTSYRTESAQRQACMYASSAPPSEPVPSLEDISCNTWPSMPSYSSCTVTTVQPMDRLPYQHFSAHFTSGPLVPRLAGMANHGSPQLGEGMFQHQTSVAHQPVVRQCGPQTGLQSPGGLQPPEFLYTHGVPRTLSPHQYHSVHGVGMVPEWSENS
